PubChem BioAssay (NCATS)
The other results are listed elsewhere or left out. The main result of the screen is listed elsewhere. These columns were measured beside it and carry no call. Most of these compounds were active or inconclusive in the main read-out, so they are no random draw. Words in brackets tell the shape of the fitted curve; partial curves, single points and poor fits give uncertain potencies.

Test: S16 Schwann cell PMP22 intronic element beta-lactamase assay (AID 624044)
Details: S16 rat Schwann cells, PMP22 element beta-lactamase FRET, 24 h
Summary of the method: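 Rat S16 Schwann cells with beta-Lac driven by a PMP22 intronic element, compound-treated 24 h at 37 °C. LiveBLAzer FRET B/G read: 460 nm normalized to potassium clavulanate vs DMSO; 535 nm FRET as viability; concentration-effect curves classified.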

[1] = measured here: 530 nm viability channel
[2] = measured here: 460 nm blue channel

Compound | AC50 [1] | AC50 [2]
O=C(O)c1ccccc1-c1c2cc(Br)c(=O)c(Br)c-2oc2c(Br)c(O)c(Br)cc12 | 15.8 µM [rising, partial curve] | 
CCC(=O)c1ccc2c(c1)N(CCCN1CCN(CCO)CC1)c1ccccc1S2 |  | 1.58 µM [falling, full curve, poor fit]
COC(=O)C1=C(C#N)NC(C)=C(C(=O)OC(C)C)C1c1cccc([N+](=O)[O-])c1 (stereo not given) |  | 4.46 µM [falling, partial curve, poor fit]
CN(C)CC[C@@](O)(c1ccccc1)c1ccccc1Cl |  | 12.6 µM [falling, single point]
CNC(=O)[C@H](Cc1c[nH]c2ccccc12)NC(=O)[C@@H](CC(=O)NO)CC(C)C |  | 25.1 µM [falling, single point]
CCCC(=O)O[C@]1(C(=O)COC(C)=O)CC[C@H]2C3C[C@H](F)C4=CC(=O)C=CC4(C)[C@@]3(F)[C@@H](O)CC21C (stereo not given in full) |  | 22.4 µM [falling, partial curve, poor fit]
O=C(O)CCCc1ccccc1 | 0.2 µM [falling, full curve] | 
O=C(O)c1ccc(N[C@@H]2OC[C@@H](O)[C@@H](O)[C@@H]2O)cc1 |  | 25.1 µM [rising, single point]
CC(=O)[C@]1(O)Cc2c(O)c3c(c(O)c2[C@@H](O[C@H]2C[C@H](N)[C@H](O)[C@H](C)O2)C1)C(=O)c1c(O)cccc1C3=O |  | 0.199 µM [falling, full curve]
O=c1[nH]c(=O)n([C@H]2C[C@H](O)[C@@H](CO)O2)cc1Br |  | 15.8 µM [falling, partial curve]
C[C@@H]1CCC[C@H](C)N1 |  | 1.9 µM [falling, full curve, poor fit]
NCC1CCC(N)C(O[C@@H]2C(O)[C@H](O[C@H]3OC(CO)C(O)C(N)C3O)[C@@H](N)C[C@H]2N)O1 (stereo not given in full) |  | 4.46 µM [falling, partial curve, poor fit]
CS(=O)(=O)c1ccc([C@H](O)[C@H](CF)NC(=O)C(Cl)Cl)cc1 | 0.158 µM [falling, full curve] | 
CCCCC(=O)O[C@]1(C(=O)CO)CCC2C3CCC4=CC(=O)CCC4(C)C3C(O)CC21C (stereo not given in full) |  | 3.98 µM [falling, full curve]
CO[C@]12C(COC(N)=O)C3=C(C(=O)C(C)=C(N)C3=O)N1CC1NC12 (stereo not given in full) |  | 7.07 µM [falling, partial curve]
CCCCCCCCCCC(CO)CCCCCCCC (stereo not given) |  | 1.99 µM [falling, full curve, poor fit]
CN1CCN(C2=Nc3ccccc3Sc3ccc(Cl)cc32)CC1 |  | 1.99 µM [falling, partial curve, poor fit]
Cc1cc(C(=O)NCCc2ccc(S(=O)(=O)NC(=O)NN3CCCCCC3)cc2)no1 |  | 15.8 µM [rising, partial curve, poor fit]

Compound | AC50 [1] | AC50 [2]
C[C@]12CC[C@H]3c4ccc(O)cc4CC[C@@H]3[C@H]1CC[C@@H]2OP(=O)(O)O |  | 5.01 µM [falling, partial curve, poor fit]
CCCCCCCCCCCCCCCCOCCOCCOCCOCCOCCOCCOCCOCCOCCOCCOCCOCCOCCOCCOCCOCCOCCOCCOCCOCCO |  | 15.8 µM [falling, partial curve]
C[C@]12CCC(=O)C=C1CC[C@H]1[C@@H]3CC[C@](O)(C(=O)CO)[C@@]3(C)C[C@H](O)[C@@]12F |  | 0.0446 µM [falling, full curve, poor fit]
CC1(C)CC1C(=O)N/C(=C/CCCCSCC(N)C(=O)O)C(=O)O (stereo not given) |  | 8.91 µM [falling, partial curve, poor fit]
C[N+]1(C)CCC(=C(c2ccccc2)c2ccccc2)CC1 | 0.0126 µM [falling, full curve] | 
CC(C)NC[C@H](O)c1cc(O)cc(O)c1 |  | 1.41 µM [falling, full curve, poor fit]
NS(=O)(=O)c1cc2c(cc1C(F)(F)F)N[C@H](Cc1ccccc1)NS2(=O)=O |  | 0.134 µM [falling, full curve, poor fit]
CCCCCCCCCCCCCCCCCCOCC(O)CO (stereo not given) |  | 3.55 µM [falling, partial curve, poor fit]
O=C(N/N=C/c1ccccc1O)c1ccncc1 |  | 28.2 µM [falling, single point]
C[C@@H]1CC2[C@@H]3C[C@H](F)C4=CC(=O)C(Cl)=C[C@]4(C)[C@@]3(F)[C@H](O)C[C@]2(C)[C@@]1(O)C(=O)CO (stereo not given in full) |  | 0.224 µM [falling, full curve, poor fit]
CCCCC(CC)COS(=O)(=O)O (stereo not given) |  | 12.6 µM [falling, single point]
CC[C@@]12CCCN3CCc4c(n(c5ccccc45)[C@](O)(C(=O)OC)C1)C32 (stereo not given in full) |  | 1.26 µM [falling, full curve, poor fit]
Cc1cncc(C(=O)O)[n+]1[O-] |  | 0.0999 µM [falling, full curve, poor fit]
CCN(CC)CCC[C@H](C)Nc1c2ccc(Cl)cc2nc2ccc(OC)cc12 | 15.8 µM [rising, partial curve] | 
Cc1ccc(S(=O)(=O)NC(=O)NC(C)Cc2ccccc2)cc1 (stereo not given) |  | 0.891 µM [falling, full curve, poor fit]
Nc1nc(=O)n([C@@H]2CS[C@H](CO)O2)cc1F |  | 3.98 µM [falling, full curve, poor fit]
C#C[C@]1(O)CCC2C3CCC4=CC(=O)CCC4C3CC[C@@]21C (stereo not given in full) |  | 0.282 µM [falling, full curve, poor fit]

Retrieved one by one from the entries so far, three records:
Compound | AC50 [1] | AC50 [2]
CCCCC(CC)COS(=O)(=O)O (stereo not given) |  | 12.6 µM [falling, single point]
CC(=O)[C@]1(O)Cc2c(O)c3c(c(O)c2[C@@H](O[C@H]2C[C@H](N)[C@H](O)[C@H](C)O2)C1)C(=O)c1c(O)cccc1C3=O |  | 0.199 µM [falling, full curve]
C[C@]12CC[C@H]3c4ccc(O)cc4CC[C@@H]3[C@H]1CC[C@@H]2OP(=O)(O)O |  | 5.01 µM [falling, partial curve, poor fit]
